From paper PMC6098069
Results are given in words; binding and its absence hold for the method and conditions named. In cells and extracts the contact can be indirect. Some entries that bind do so weakly or less than the wild type.

Protein sequences, listed by entry. Tags and fused reporters are not part of them. Residues count along the entry.
UniProt P08575, residues 26-1306: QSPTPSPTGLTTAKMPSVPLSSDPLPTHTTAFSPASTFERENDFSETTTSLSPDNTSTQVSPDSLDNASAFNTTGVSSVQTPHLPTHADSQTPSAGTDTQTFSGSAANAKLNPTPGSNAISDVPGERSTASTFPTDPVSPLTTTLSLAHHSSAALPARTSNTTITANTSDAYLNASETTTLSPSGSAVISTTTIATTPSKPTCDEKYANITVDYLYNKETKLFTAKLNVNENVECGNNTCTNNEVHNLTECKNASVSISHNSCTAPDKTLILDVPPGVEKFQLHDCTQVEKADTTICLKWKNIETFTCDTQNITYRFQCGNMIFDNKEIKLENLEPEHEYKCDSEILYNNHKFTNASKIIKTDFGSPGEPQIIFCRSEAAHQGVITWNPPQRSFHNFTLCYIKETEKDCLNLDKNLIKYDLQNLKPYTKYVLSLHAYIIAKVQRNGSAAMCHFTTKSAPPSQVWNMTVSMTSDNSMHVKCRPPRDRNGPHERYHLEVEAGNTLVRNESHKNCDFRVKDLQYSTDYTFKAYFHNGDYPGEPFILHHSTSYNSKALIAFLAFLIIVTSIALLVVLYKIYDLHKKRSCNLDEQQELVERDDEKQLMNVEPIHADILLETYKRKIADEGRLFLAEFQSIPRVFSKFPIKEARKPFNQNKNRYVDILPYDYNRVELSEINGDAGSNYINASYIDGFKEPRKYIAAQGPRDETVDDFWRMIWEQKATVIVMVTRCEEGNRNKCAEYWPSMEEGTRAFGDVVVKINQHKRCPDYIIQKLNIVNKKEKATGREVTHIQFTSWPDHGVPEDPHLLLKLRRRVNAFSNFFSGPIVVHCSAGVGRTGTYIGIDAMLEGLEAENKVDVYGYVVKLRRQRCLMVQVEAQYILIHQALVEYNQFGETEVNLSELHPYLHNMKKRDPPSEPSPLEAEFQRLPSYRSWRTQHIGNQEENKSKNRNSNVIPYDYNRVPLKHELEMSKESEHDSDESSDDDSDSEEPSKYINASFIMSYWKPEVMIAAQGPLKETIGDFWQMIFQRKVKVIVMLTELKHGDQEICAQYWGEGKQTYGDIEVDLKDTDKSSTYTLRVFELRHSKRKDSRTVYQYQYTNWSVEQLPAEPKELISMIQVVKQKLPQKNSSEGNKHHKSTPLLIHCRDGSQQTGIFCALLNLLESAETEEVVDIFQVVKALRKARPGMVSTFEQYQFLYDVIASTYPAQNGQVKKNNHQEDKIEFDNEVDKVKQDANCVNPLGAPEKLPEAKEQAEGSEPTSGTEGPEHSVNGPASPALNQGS

Assays:
[1] = biological target: CD45 (full-length isoform CD45RABC), endogenous on human tonsillar naive B cells (human (endogenous in tonsillar naive B cells)) (UniProt P08575); experiment: co-IP; naive B cells labelled with 2 ug/mL recombinant Gal-9 in 1% BSA for 30 min on ice, washed, lysed in 2% NP-40 buffer (150 mM NaCl, 0.5 mM Tris, 1 mM EDTA); IP overnight with anti-Gal-9 or anti-CD45 antibody on Protein G-agarose; blot for Gal-9 or CD45; controls: isotype antibody, 200 mM lactose; only the binder purified
[2] = biological target: CD45 (full-length isoform CD45RABC), endogenous on human tonsillar naive B cells (human (endogenous in tonsillar naive B cells)) (UniProt P08575); experiment: co-IP; as for recombinant Gal-9 but no recombinant Gal-9 added; 200 ug B cell lysate in 2% NP-40 buffer; IP with anti-Gal-9 or anti-CD45 antibody on Protein G-agarose; blot for Gal-9 or CD45

| binding [1] | binding [2] | Substance |
| --- | --- | --- |
| binds | – | recombinant, E.coli-derived human Gal-9 (galectin-9) (from UniProt O00182 1-355) |
| – | binds | endogenous Gal-9 of human tonsillar B cells (from UniProt O00182 1-355) |
